Measurements taken from publication PMC11266579.
Read-outs that look alike come from different tables or passages of the source. No constants are given. Whether binding was seen depends on the method and setting. Binding seen in cells or lysates may run through a third protein. Here binding means that the protein was enriched with, or labelled near, the bait; the list need not be complete.

Amino acid sequences for entries named in this document (tags omitted).
UniProt O60566: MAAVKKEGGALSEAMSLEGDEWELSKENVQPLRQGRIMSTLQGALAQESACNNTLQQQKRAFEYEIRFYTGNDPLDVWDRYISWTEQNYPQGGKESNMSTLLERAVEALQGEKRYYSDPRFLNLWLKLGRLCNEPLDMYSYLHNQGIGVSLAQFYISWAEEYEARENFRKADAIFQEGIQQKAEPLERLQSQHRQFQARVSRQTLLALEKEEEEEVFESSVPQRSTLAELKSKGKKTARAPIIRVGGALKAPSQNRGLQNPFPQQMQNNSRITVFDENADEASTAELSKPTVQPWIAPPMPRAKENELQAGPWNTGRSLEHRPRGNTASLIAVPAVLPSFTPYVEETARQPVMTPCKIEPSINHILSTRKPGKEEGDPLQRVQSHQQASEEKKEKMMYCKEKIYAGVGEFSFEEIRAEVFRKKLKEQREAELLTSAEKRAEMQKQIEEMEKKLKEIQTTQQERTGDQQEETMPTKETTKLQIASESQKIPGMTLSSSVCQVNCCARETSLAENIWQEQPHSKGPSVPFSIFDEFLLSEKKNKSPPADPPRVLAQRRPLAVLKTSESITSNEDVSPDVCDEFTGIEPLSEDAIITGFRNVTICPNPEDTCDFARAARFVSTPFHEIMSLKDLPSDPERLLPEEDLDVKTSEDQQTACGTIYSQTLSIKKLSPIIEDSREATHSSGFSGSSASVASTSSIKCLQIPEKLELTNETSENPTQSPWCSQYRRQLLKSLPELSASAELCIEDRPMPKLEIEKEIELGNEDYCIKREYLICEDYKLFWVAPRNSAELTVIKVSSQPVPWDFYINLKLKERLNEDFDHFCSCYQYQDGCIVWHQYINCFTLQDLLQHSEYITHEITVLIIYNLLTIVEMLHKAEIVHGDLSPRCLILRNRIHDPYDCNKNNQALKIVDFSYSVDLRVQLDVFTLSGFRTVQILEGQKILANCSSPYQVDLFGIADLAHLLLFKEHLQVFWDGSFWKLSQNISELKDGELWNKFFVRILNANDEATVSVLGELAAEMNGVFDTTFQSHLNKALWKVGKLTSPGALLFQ
UniProt Q5T2D3: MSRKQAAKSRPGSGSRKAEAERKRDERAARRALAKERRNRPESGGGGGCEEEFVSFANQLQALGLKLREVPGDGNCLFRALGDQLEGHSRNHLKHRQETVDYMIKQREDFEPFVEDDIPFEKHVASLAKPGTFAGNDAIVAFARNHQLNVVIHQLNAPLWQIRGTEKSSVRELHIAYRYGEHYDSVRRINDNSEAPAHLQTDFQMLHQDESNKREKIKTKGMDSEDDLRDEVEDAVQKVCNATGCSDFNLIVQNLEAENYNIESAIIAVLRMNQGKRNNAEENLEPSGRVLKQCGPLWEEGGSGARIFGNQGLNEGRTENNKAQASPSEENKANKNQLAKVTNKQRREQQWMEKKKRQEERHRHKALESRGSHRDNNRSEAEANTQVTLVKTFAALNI

How the values were obtained:
Test in all cases: affinity purification with mass spectrometry; lysates of A549 and H460-BUB1b cells (2 × 10^7, IP lysis buffer), 2.5 μg anti-BUB1b or anti-IgG overnight at 4 °C, protein A/G beads 6 h at 4 °C, washed three times with PBS, LC/MS of the immunoprecipitated complexes
[1] = molecular target: BUB1 mitotic checkpoint serine/threonine kinase B (BUB1b), endogenous in A549 cells (human (endogenous in A549)) (UniProt O60566)
[2] = molecular target: BUB1b overexpressed by lentivirus in H460 cells (H460-BUB1b) (UniProt O60566)
[3] = molecular target: BUB1 mitotic checkpoint serine/threonine kinase B (BUB1b), endogenous in A549 cells (human (endogenous in A549)) (UniProt O60566); remark: listed apart in the source
[4] = molecular target: BUB1b overexpressed by lentivirus in H460 cells (H460-BUB1b) (UniProt O60566); remark: listed apart in the source

Molecule | binding [1] | binding [2] | binding [3] | binding [4]
OTUD3 (from UniProt Q5T2D3 1-398) (enzyme) | binds | binds |  | 
NRF2 (protein, UniProt Q16236 1-605) MMDLELPPPGLPSQQDMDLIDILWRQDIDLGVSREVFDFSQRRKEYELEKQKKLEKERQEQLQKEQEKAFFAQLQLDEETGEFLPIQPAQHIQSETSGSANYSQVAHIPKSDALYFDDCMQLLAQTFPFVDDNEVSSATFQSLVPDIPGHIESPVFIATNQAQSPETSVAQVAPVDLDGMQQDIEQVWEELLSIPELQCLNIENDKLVETTMVPSPEAKLTEVDNYHFYSSIPSMEKEVGNCSPHFLNAFEDSFSSILSTEDPNQLTVNSLNSDATVNTDFGDEFYSAFIAEPSISNSMPSPATLSHSLSELLNGPIDVSDLSLCKAFNQNHPESTAEFNDSDSGISLNTSPSVASPEHSVESSSYGDTLLGLSDSEVEELDSAPGSVKQNGPKTPVHSSGDMVQPLSPSQGQSTHVHDAQCENTPEKELPVSPGHRKTPFTKDKHSSRLEAHLTRDELRAKALHIPFPVEKIINLPVVDFNEMMSKEQFNEAQLALIRDIRRRGKNKVAAQNCRKRKLENIVELEQDLDHLKDEKEKLLKEKGENDKSLHLLKKQLSTLYLEVFSMLRDEDGKPYSPSEYSLQQTRDGNVFLVPKSKKPDVKKN |  |  | binds | binds
